In article PMC3742740:
No constants are given. Whether binding was seen depends on the method and setting. Binding calls can cover weak binding; strength is not graded here.

Biological target: T1, TAT-labeled WT α5-integrin peptide (PPATSDA)
T1 sequence (peptide): PPATSDA
Assay: ELISA; amine surface stripwell plate coated with 4 µM TAT-labeled α5 peptide in 0.1 mM NaCO3 (pH 9.6), 3 h at 4°C; blocked with 2% BSA in TBST; 1 µg recombinant GST protein in blocking buffer for 1 h; detected with rabbit anti-GST and HRP anti-rabbit antibody; both purified

Question: “GST-ZO-1 PDZ1-3 (WT) (domain or fragment)” was tested. Which binding did it give?
Answer: binds
